Experiment [1] concerns the target T1, human B7-H3 expressed on the cell surface (human) (UniProt Q5ZPR3).
T1 sequence: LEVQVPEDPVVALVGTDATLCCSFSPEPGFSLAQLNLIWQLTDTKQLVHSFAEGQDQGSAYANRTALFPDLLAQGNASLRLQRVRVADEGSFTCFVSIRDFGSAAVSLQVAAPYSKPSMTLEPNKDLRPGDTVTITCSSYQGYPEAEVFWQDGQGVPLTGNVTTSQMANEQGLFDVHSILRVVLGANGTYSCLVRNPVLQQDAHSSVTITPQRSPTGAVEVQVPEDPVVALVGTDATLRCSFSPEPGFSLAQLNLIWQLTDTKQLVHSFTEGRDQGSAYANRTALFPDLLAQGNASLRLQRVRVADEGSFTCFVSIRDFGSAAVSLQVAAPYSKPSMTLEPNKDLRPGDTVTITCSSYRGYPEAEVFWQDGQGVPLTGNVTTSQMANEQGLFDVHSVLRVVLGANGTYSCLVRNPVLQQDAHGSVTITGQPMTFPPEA
Briefly: flow cytometry, geometric mean (FITC), on HEK293E/B7H3+++ and HEK293E cells. In general terms: A flow cytometer gives signals particle by particle.

The target of experiment [2] is T1, human B7-H3 expressed on the cell surface (human). Briefly: flow cytometry on cell lines expressing human B7-H3 (FIG. 6a).
Experiment [3] deals with T2, Mouse B7-H3 (#50973-M08H, Sino) (mouse, UniProt Q8VE98 29-244).
T2 construct: Bought protein; also called mouse B7-H3 antigen
T2 sequence (looked up): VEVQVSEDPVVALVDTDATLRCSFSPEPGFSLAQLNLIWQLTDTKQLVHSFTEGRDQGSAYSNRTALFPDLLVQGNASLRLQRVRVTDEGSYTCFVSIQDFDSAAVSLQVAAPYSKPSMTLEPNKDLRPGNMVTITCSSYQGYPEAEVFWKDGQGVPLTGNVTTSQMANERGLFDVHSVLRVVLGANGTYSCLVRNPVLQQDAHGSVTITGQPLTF
Briefly: ELISA on coated Mouse B7H3, OD450nm. For orientation: In an ELISA, binding on a coated surface is turned into a signal by an enzyme label.

Experiment [4] concerns the target T1, human B7-H3 expressed on the cell surface (human). Briefly: flow cytometry, geometric mean (FITC), on A498 and NCI-N87 cells.
In experiment [5] the target is T3, Human B7-H3 (#S1435, Y-Biologics) (human) (UniProt Q5ZPR3).
T3 sequence: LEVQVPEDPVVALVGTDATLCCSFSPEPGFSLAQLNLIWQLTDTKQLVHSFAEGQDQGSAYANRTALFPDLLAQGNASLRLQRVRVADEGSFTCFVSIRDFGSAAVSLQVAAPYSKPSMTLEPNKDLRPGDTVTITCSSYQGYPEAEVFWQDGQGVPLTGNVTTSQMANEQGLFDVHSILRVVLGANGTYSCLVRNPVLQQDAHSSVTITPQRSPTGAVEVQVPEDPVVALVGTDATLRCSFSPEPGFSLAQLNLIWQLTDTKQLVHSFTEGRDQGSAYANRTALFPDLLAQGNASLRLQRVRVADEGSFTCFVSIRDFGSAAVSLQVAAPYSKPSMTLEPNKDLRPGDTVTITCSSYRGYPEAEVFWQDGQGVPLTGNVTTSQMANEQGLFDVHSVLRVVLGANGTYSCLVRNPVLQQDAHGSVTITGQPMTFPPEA
Briefly: ELISA on coated Human B7H3, OD450nm.

In experiment [6] the target is T1, human B7-H3 expressed on the cell surface (human). Description: flow cytometry on cell lines expressing human B7-H3 (FIG. 6d, 'the six antibodies').
Experiment [7] deals with T4, rat B7-H3 (#80380-R08H, Sino) (rat, UniProt Q7TPB4 29-244).
T4 construct: Bought protein; also called rat B7-H3 antigen
T4 sequence (looked up): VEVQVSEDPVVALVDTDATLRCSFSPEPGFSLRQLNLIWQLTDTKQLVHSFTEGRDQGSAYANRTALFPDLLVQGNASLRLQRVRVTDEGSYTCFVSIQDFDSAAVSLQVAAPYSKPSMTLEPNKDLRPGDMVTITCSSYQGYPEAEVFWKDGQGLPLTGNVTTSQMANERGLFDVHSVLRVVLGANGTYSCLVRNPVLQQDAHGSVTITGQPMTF
Description: ELISA on coated Rat B7H3, OD450nm.

The target of experiment [8] is T1, human B7-H3 expressed on the cell surface (human). Description: flow cytometry, geometric mean (FITC), on HEK293E/B7H3+++, HEK293E, A498, Calu-6 and NCI-N87 cells.
Experiment [9] shares this target. Description: flow cytometry on cell lines expressing human B7-H3 (FIG. 6c).

These are yes or no findings as the source states them, for the method shown. Some binding calls cover weakened binding; strength is not graded here.

B1: CD276-033E03 (antibody, V domains shown)
VH: QVQLVESGGGLVQSGGSLRLSCAASGFTFSSYAMSWVRQAPGKGLEWVSVISGSGGSRYYADSVKGRFTISRDNSKNTLYLQMNSLRAEDTAVYYCASHTIPGAWDVWGQGTLVTVSS
VL: QSALTQPASVSGSPGQSITISCTGTTRDVGGYNYVSWYQQHPGKAPKLMIYDVNNRPSGVSYRFSGSKSGNTASLTISGLQAEDEADYYCSSYTTSSRRVFGTGTKVTVL
As for B1, the binding entry in experiment [1] and in experiment [2] was “binds” each time.

B2: CD276-039C05_LS_002B07 (antibody, V domains shown)
VH: QVQLVESGAEVKKPGSSVKVSCKASGGTFSSYAISWVRQAPGQGLEWMGRIIPILGIANYAQKFQGRVTITADKSTSTAYMELSSLRSEDTAVYYCANGGDSSSWYTFDYWGQGTLITVSS
VL: DIQMTQSPSSLSASVGDRVTITCRASQGISSYLAWYQQKPGKAPKLLIYAASTLQSGVPSRFSGSGSGTDFTLTISSLQPEDFATYYCQQYYSFPLTFGGGTKVEIK
As for B2, the binding entry in experiment [3], in experiment [4], in experiment [5], in experiment [6] and in experiment [7] was “binds” in each case.

B3: CD276-039C05 (antibody, V domains shown)
VH: QVQLVESGAEVKKPGSSVKVSCKASGGTFSSYAISWVRQAPGQGLEWMGRIIPILGIANYAQKFQGRVTITADKSTSTAYMELSSLRSEDTAVYYCANGGDSSSWYTFDYWGQGTLITVSS
VL: DIQMTQSPSTLSASVGDKLTLTCRASQSISRWLAWYQQKPGKAPKLLIYKASYLQTGVPSRFSGSGTGTEFTLTISSLQPDDFATYYCQQYNTFPLTFAGGTKVEIK
notes: Converted from scFv to IgG form; Parent of the _LS_ light-chain variants
On to B3, for which the binding entry in [8] and in experiment [9] was “binds” each time.

B4: CD276-039C05_LS_002C07 (antibody, V domains shown)
VH: QVQLVESGAEVKKPGSSVKVSCKASGGTFSSYAISWVRQAPGQGLEWMGRIIPILGIANYAQKFQGRVTITADKSTSTAYMELSSLRSEDTAVYYCANGGDSSSWYTFDYWGQGTLITVSS
VL: DIQMTQSPSTLSASVGDRVTITCRAGQSIRSWLAWYQQKPGEAPKLLIYKAYYLQTGVPSRFSGSGAGTEFTLTISSLQPDDFATYYCQQYNTSPLTFGGGTKVEIK
B4: the binding result in experiment [4] and in [6] was “binds” each time.

Values taken from patent US20220348663A1 (Y BIOLOGICS, published 2022).
